Results are given in words; binding and its absence hold for the method and conditions named. Binding seen in cells or lysates may run through a third protein. Some results given as binding are weak or reduced against the parent protein; the word gives no strength.
Tests used:
[1] = target: T1, Rb (human (endogenous in MDA-MB-231)) (UniProt P06400); assay: co-IP; endogenous proteins in RIPA cell lysate; antibody and protein A/G magnetic beads overnight at 4 °C, beads washed 3 times with lysis buffer, western blotting; for Fig. 4D cells with si-CENPF or si-control
T1 sequence: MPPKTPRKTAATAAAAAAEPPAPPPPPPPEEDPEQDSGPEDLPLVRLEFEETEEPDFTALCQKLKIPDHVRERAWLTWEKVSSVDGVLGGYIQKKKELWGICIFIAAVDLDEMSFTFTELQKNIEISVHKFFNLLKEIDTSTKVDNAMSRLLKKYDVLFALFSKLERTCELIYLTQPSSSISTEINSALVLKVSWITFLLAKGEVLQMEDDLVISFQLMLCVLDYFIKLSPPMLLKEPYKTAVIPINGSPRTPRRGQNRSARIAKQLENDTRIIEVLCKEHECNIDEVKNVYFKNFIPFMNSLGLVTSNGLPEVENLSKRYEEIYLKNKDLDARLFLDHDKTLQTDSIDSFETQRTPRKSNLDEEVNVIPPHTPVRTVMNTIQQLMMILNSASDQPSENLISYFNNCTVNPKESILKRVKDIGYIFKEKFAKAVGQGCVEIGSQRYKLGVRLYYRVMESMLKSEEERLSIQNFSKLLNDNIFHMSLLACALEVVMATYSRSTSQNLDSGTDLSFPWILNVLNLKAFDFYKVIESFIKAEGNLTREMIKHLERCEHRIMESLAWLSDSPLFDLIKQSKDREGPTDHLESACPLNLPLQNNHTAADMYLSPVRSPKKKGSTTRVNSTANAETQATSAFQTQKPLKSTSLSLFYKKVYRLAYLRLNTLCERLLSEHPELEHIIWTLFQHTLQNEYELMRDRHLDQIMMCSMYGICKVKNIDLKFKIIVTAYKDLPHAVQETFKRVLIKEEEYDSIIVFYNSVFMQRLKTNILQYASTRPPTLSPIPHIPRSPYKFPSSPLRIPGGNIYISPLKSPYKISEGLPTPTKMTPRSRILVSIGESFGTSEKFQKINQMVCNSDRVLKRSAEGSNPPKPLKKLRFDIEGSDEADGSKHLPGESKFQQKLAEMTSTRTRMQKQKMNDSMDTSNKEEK

Protein sequences, listed by entry. Tags and fused reporters are not part of them.
UniProt P49454: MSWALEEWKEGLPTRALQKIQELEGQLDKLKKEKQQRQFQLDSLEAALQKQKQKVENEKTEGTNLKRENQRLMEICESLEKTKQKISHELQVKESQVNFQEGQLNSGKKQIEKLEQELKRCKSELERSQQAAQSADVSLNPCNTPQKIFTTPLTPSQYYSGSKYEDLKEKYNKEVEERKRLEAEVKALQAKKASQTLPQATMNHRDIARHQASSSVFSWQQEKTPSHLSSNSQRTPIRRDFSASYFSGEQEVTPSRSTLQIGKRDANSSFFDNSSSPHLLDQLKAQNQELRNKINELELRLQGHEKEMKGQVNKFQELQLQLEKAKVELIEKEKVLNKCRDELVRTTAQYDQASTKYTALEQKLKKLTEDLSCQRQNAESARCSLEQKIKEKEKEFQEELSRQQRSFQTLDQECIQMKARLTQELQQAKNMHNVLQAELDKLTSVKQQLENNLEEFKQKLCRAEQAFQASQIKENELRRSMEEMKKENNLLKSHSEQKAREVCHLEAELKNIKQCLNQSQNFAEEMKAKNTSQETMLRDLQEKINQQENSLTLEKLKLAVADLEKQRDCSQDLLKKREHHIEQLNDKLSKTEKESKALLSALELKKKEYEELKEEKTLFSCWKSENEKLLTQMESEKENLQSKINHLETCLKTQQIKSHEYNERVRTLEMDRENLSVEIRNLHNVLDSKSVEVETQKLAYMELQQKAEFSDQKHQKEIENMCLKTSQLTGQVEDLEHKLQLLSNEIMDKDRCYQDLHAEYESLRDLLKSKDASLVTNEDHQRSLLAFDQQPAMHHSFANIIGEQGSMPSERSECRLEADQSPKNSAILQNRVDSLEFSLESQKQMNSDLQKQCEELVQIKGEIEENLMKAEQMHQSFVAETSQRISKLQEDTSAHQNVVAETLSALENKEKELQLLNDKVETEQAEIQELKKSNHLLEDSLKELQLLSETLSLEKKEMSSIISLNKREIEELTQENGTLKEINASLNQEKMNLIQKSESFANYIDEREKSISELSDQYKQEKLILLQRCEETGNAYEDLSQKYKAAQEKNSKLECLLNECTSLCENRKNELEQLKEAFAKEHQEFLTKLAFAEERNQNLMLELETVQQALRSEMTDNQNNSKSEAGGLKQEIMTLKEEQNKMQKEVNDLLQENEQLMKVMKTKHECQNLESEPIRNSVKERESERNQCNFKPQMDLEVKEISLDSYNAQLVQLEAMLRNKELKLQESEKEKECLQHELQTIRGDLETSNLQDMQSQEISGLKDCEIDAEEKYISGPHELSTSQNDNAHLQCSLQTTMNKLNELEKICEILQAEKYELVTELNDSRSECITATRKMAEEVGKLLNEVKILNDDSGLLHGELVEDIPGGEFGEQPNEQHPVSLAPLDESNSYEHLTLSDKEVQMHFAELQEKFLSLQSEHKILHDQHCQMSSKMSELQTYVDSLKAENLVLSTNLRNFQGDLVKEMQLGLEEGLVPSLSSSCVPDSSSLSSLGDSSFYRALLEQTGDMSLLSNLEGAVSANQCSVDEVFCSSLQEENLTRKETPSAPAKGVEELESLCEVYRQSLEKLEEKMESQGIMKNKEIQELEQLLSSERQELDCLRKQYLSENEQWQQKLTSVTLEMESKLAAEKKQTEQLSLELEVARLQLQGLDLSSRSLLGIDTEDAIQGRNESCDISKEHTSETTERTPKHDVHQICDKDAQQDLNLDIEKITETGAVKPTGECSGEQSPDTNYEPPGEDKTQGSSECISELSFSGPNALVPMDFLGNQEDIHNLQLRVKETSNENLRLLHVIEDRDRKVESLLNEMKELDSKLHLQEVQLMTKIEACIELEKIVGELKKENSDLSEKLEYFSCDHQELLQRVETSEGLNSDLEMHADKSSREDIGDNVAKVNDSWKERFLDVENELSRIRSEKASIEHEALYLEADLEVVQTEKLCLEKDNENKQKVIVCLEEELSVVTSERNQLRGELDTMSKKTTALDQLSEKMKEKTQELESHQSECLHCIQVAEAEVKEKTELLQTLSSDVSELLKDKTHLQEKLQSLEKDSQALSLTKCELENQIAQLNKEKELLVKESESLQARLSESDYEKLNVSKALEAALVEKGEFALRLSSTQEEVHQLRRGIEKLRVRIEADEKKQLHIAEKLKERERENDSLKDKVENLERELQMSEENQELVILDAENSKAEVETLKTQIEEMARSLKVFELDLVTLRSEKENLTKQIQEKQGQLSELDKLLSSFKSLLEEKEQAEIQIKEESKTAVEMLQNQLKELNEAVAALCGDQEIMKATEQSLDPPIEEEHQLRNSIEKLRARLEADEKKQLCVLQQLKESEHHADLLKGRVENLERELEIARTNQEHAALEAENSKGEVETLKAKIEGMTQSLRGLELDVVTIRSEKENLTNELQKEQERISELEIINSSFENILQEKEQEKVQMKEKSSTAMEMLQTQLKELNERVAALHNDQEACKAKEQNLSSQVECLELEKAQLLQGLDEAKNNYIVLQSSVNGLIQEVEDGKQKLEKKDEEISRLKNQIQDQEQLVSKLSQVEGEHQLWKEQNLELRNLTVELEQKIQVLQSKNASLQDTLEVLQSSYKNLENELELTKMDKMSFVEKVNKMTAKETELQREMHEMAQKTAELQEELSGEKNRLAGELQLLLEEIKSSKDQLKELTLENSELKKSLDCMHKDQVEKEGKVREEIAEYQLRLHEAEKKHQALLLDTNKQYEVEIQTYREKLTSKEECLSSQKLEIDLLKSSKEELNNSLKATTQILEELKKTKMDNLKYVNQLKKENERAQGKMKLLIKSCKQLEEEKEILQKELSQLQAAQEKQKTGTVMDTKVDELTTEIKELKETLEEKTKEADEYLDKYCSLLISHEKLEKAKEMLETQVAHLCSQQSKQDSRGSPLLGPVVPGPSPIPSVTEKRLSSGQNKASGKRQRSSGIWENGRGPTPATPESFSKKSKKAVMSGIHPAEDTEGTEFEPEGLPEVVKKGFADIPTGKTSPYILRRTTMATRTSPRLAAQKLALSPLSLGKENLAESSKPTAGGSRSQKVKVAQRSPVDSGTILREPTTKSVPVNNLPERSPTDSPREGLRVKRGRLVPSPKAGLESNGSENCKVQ

[2] = target: CENPF (centromere protein) (human (endogenous in MDA-MB-231)) (UniProt P49454); assay: as above

Molecule: CENPF (centromere protein) (from UniProt P49454 1-3114)
- binding [1]: binds

B1: Rb (protein, UniProt P06400 1-928)
chain: T1 sequence
- binding [2]: binds
